In patent publication US6846664B2, “Process for the preparation of protease inhibitor using novel alkalothermophilic bacillus sp” (priority 2000, dated 2005):
At least one structure is not confirmed: it was looked up by name or label, or the drawing left a doubt. Ends that are not written are not given here.

By UniProt entry, the sequences of proteins in these tests, tags left out. Residues count along the entry.
UniProt P0DJD8, 63-388: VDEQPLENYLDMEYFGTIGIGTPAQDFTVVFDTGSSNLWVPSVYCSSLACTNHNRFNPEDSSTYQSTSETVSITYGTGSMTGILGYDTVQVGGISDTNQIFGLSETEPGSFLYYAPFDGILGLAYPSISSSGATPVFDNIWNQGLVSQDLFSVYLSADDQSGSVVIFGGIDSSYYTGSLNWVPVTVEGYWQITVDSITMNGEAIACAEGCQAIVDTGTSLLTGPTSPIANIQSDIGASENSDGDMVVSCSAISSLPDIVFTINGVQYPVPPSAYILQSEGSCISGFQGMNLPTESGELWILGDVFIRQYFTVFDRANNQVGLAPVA

Target: pepsin (Homo sapiens, UniProt P0DJD8)
Experiment: Assay of pepsin inhibition (casein substrate, pH 2.0, OD 280 nm)
Assay type: biochemical
Conditions: pH 2.0, 37° C., 30 min, read-out: IC50 value against pepsin
From the text: In a feature of the invention, the pepsin inhibitor was selectively purified by removing the high molecular weight compounds from the culture broth by treating it with activated charcoal. The charcoal treated broth was filtered through ultrafiltration membrane and concentrated by lyophilization. The concentrated inhibitor sample was loaded onto a reverse phase-high performance liquid chromatography column using a linear gradient of acetonitrile and triflouroacetate, and the peaks were checked for the inhibitor activity. […] This compound absorbs strongly at 210 nm. The compound was collected and checked as a single purified peptide after loading onto the HPLC column. One unit of inhibitor is defined as the amount of inhibitor which inhibits the protease activity expressed in terms of decrease in optical density of 0.001 per minute.
The protease pepsin was incubated in KC1-HC1 buffer, 0.02 M, pH-2.0, containing the inhibitor in various molar ratios at 37° C. for 30 min. After incubation the residual activity was determined and compared with the controls incubated without the inhibitor.
For example—To 0.05 ml of 100 mg/ml of aqueous solution of pepsin, 0.1 ml of the inhibitor solution was added. […] Precipitated excess casein was removed by filtration after incubation for one hour and the optical density was measured at 280 nm. […]

Q: How did the IC50 turn out when AGKKDDDDPPE [inhibitor] was run?
A: 25 mM
